According to paper PMC12040169 (PLOS Biology, 2025):
Some of the results follow.

The compounds below were run on T1, CTL2-GFP (C. trachomatis L2/434/Bu, GFP-expressing). Conditions: bulk GFP, single well; 28.5 h, 10 µM; inhibitor.
T1 construct: L2/434/Bu, GFP-expressing
Set-up: species or system HeLa; Intracellular C. trachomatis growth in HeLa cells, bulk GFP fluorescence relative to DMSO

Q: O=C(O)CSc1nc2ccc([N+](=O)[O-])cc2s1 [CBK262232] was tested. Which “% of control remaining” value did it give?
A: 120.825%

Q: How did the “% of control remaining” value turn out when COc1cc(CCc2cc(O)n3nc(C)c(-c4ccc(Cl)cc4)c3n2)on1 [CBK285681] was run?
A: 85.8847%

Q: How did the “% of control remaining” value turn out when COc1cccc(CNc2ccc3c4c(cccc24)CC3)c1OC [CBK269688] was run?
A: 126.252%

Q: For CC1(C)OC(=O)CC1C(=O)N1CCCC(COc2ccccc2F)C1 (stereo not shown) [CBK282098], which “% of control remaining” value is on record?
A: 135.071%

Q: With O=C(CSc1nnc(-c2ccncc2)o1)c1ccccc1 [CBK070562] as the compound, how does the “% of control remaining” value read?
A: 58.7553%

Q: For COc1cccc(NC(=O)c2ccc(-c3ccsc3)nc2NCC2CC2)c1 [CBK106227], which “% of control remaining” value is on record?
A: 94.2046%

Q: O=S(=O)(NC(c1ccccc1)c1ccccc1)c1ccc(Cl)cc1 [CBK261759] was tested. Which “% of control remaining” value did it give?
A: 96.809%

Q: Which “% of control remaining” value does the source give for CCOc1ccc(NC(=O)c2c(O)c3ccccc3n(CC)c2=O)cc1 [CBK287771] here?
A: 125.345%

Q: CC(C)Cc1[nH]nc(O)c1-c1ccccc1 [CBK075134] was tested. Which “% of control remaining” value did it give?
A: 106.626%

Q: For COc1ccc(Cl)cc1NC(=O)NCCN1CCCCC1 [CBK268169], which “% of control remaining” value is on record?
A: 114.229%

Q: For CC(C)[C@H](CO)Nc1nc(-c2ccc(F)c(Cl)c2)cnc1N [CBK063949], which “% of control remaining” value is on record?
A: 146.83%

Q: How did the “% of control remaining” value turn out when Cc1csc2c(C3CCCN(C(=O)c4ccnn4C)C3)nc(C)n12 (stereo not shown) [CBK285215] was run?
A: 129.12%

Q: Cc1c(-c2ccnc(N3CCOCC3)n2)cnc2nc(-c3ccncc3)nn12 [CBK288551] was tested. Which “% of control remaining” value did it give?
A: 139.193%

Q: For CN1CC[C@]2(c3ccc4c(c3)nnn4C)CC[C@@H](NC(=O)Nc3cccc(C(F)(F)F)c3F)C[C@H]12 [CBK067410], which “% of control remaining” value is on record?
A: 124.323%

Q: Which “% of control remaining” value does the source give for Cc1cc(C)cc(CNC(=O)N(CCCO)Cc2ccncc2)c1 [CBK304335] here?
A: 87.7626%

Q: With CCOCCCNC(=O)c1cccc(S(=O)(=O)N2CCCC2)c1 [CBK305934] as the compound, how does the “% of control remaining” value read?
A: 101.397%

Q: How did the “% of control remaining” value turn out when Nc1nc(Cn2nc(-c3ccc(F)cc3)oc2=O)nc(Nc2ccc(F)cc2)n1 [CBK296742] was run?
A: 133.265%

Q: How did the “% of control remaining” value turn out when CCc1ccc(-c2csc(NS(=O)(=O)c3cccc(C(=O)O)c3)n2)cc1 [CBK296726] was run?
A: 133.639%

Q: With CC(C(=O)Nc1c(F)cc(F)cc1OC1CCNCC1)c1ccccc1 (stereo not shown) [CBK045896T] as the compound, how does the “% of control remaining” value read?
A: 110.028%

Q: With CCOC(=O)C1CCN(C(=O)c2cnn3c(C)c(Cc4cccc(Cl)c4)c(C)nc23)CC1 [CBK160305] as the compound, how does the “% of control remaining” value read?
A: 114.736%

Q: With COc1ccc(-c2ccccc2NC(=O)c2cc(-n3cccn3)ccc2Cl)cc1 [CBK285634] as the compound, how does the “% of control remaining” value read?
A: 122.758%

Q: Which “% of control remaining” value does the source give for COCOc1ccc(-c2ncc(OC)nc2NC(=O)c2cc(C)oc2C)cc1 [CBK145249] here?
A: 127.916%

Q: For Cn1cc(N2CCCC(NC(=O)Nc3cccc(C#N)c3)C2)cn1 (stereo not shown) [CBK305179], which “% of control remaining” value is on record?
A: 119.482%

Q: With CN(C)CCN(Cc1ccccc1)c1ccccc1 [CBK012223C] as the compound, how does the “% of control remaining” value read?
A: 118.583%

Q: O=C(NCc1ccccn1)/C(=N/O)c1ccccc1 [CBK288472] was tested. Which “% of control remaining” value did it give?
A: 109.75%

Q: C/C(=N\c1ccccc1C(F)(F)F)c1ccncc1 [CBK021262] was tested. Which “% of control remaining” value did it give?
A: 100%

Q: For Cc1cnc(C(=O)NC2(c3ccc(Cl)cc3)CCC2)cn1 [CBK282775], which “% of control remaining” value is on record?
A: 98.8508%

Q: Cc1ccc2c(O)c(C(=O)NCc3cccs3)cnc2c1 [CBK159997] was tested. Which “% of control remaining” value did it give?
A: 90.1797%

Q: For Oc1c(Br)cc(Cl)cc1/C=N/Nc1nnc2c(n1)[nH]c1ccccc12 [CBK262041], which “% of control remaining” value is on record?
A: 105.333%

Q: How did the “% of control remaining” value turn out when Nc1ncc(-c2ccoc2)nc1N1CCN(CCO)CC1 [CBK063428] was run?
A: 234.773%

Q: Which “% of control remaining” value does the source give for Cc1cc(C)c(NC(=O)CSc2nc(C)c(Cc3ccccc3)c(O)n2)c([N+](=O)[O-])c1 [CBK268715] here?
A: 161.493%

Q: With Cc1cccc(N2CCOC3(CCCC3)C2)n1 [CBK304446] as the compound, how does the “% of control remaining” value read?
A: 109.185%

Q: For COc1ccc(C(=O)Nc2nc(-c3ccc(OC)cc3)cs2)cc1 [CBK287325], which “% of control remaining” value is on record?
A: 162.078%

Q: For O=C(NCc1ccc(Cl)c(Cl)c1)Nc1cccc(C(=O)O)c1 [CBK155461G], which “% of control remaining” value is on record?
A: 80.0935%

Q: Which “% of control remaining” value does the source give for CCN1CCN(C(=O)c2cnccn2)CC1 [CBK200373] here?
A: 148.386%

Q: How did the “% of control remaining” value turn out when c1cc(-c2cnn(-c3ccc4c(c3)CCO4)n2)cs1 [CBK112861] was run?
A: 100.702%

Q: With O=C(O)CCCC(=O)N1N=C(c2ccccc2)CC1c1ccc2nccnc2c1 (stereo not shown) [CBK286752] as the compound, how does the “% of control remaining” value read?
A: 123.42%

Q: With CCCc1[nH]nc(O)c1Cc1ccc(C(C)(C)C)cc1 [CBK075028] as the compound, how does the “% of control remaining” value read?
A: 118.805%

Q: For Oc1ccc2[nH]c3c(c2c1)CCNC31CCN(CCOc2ccccc2)C1 (stereo not shown) [CBK081496], which “% of control remaining” value is on record?
A: 97.6079%

Q: For O=C(CSc1ncnc2c1oc1ccccc12)NCc1ccccc1 [CBK287397], which “% of control remaining” value is on record?
A: 108.21%

Q: How did the “% of control remaining” value turn out when Cc1cc(C(=O)Nc2cccc(-c3nc4cc(Cl)ccc4o3)c2C)ccc1[N+](=O)[O-] [CBK262949] was run?
A: 106.269%

Q: Which “% of control remaining” value does the source give for Cc1ccc(C#N)cc1S(=O)(=O)NC(=O)CC1CCOc2ccccc21 (stereo not shown) [CBK306476] here?
A: 98.3735%

Q: With CN(CC(=O)N1CCN(Cc2ccccc2)CC1)S(=O)(=O)c1ccc2ccccc2c1 [CBK267117] as the compound, how does the “% of control remaining” value read?
A: 141.861%

Q: For CSCCC(=O)N1CCC2(CCN(Cc3ccccc3)CC2)C1 [CBK136757], which “% of control remaining” value is on record?
A: 107.621%

Q: How did the “% of control remaining” value turn out when Cc1n[nH]c(C)c1CCCCCOc1ccccc1 [CBK027211C] was run?
A: 133.281%

Q: CC(=O)Nc1ccc(Sc2cnccn2)cc1 [CBK085838] was tested. Which “% of control remaining” value did it give?
A: 92.5588%

Q: For O=C(c1ccncc1)N1C2CCC1CC(O)(c1ccc(F)cc1)C2 (stereo not shown) [CBK283545], which “% of control remaining” value is on record?
A: 102.889%

Q: Which “% of control remaining” value does the source give for N#CCCCN1CCC(Oc2nccnc2OC2CCCCC2)CC1 [CBK082871T] here?
A: 117.468%

Q: Which “% of control remaining” value does the source give for O=C(NC(c1ccc(F)cc1)c1ccc2ccccc2n1)C1CCN(CCCN2CCOCC2)CC1 (stereo not shown) [CBK148118] here?
A: 146.138%

Q: How did the “% of control remaining” value turn out when c1cc(CCCOc2cc(N3CCCC3)ncn2)ccn1 [CBK115897] was run?
A: 77.5136%

Q: Cc1ccn2ncc(C(=O)N3CCCCCC3c3ccco3)c2n1 (stereo not shown) [CBK304015] was tested. Which “% of control remaining” value did it give?
A: 125.355%

Q: With Cc1cc(COc2nc3ccccc3nc2NCCC(C)O)no1 (stereo not shown) [CBK173999] as the compound, how does the “% of control remaining” value read?
A: 109.343%
